Positions count from the first letter of the chain named. These are yes or no findings as the source states them, for the method shown. In cells and extracts the contact can be indirect. Some results given as binding are weak or reduced against the parent protein; the word gives no strength.
Experiments:
Experiment in all cases: pull-down; BamE-Myc co-expressed with wild-type or mutant LolCDE (His8 on LolD) from pTRC99a-lolCDE-BamE; complex purified by nickel affinity and SEC; bound BamE detected by western blot
[1] = molecular target: T1, LolCDE complex (wild type), E. coli K-12 (E. coli K-12) (UniProt P0ADC3+P75957+P75958)
T1 sequence 1: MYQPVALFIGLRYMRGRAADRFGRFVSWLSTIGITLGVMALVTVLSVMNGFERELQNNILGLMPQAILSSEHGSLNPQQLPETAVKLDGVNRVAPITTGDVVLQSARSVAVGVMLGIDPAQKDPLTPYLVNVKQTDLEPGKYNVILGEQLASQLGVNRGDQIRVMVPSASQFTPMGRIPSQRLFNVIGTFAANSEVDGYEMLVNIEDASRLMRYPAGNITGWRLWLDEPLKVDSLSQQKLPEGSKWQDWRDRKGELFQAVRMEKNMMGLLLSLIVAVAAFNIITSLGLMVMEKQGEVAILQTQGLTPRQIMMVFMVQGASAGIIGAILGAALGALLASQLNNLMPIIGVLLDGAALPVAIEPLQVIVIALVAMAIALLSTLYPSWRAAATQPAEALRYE
T1 sequence 2: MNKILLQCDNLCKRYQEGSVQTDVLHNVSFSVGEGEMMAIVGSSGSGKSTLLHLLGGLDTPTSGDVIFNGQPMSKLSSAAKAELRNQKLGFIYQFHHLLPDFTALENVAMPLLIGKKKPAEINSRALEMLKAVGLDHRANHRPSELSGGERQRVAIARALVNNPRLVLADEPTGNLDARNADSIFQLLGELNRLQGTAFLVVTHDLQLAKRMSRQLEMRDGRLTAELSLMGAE
T1 sequence 3: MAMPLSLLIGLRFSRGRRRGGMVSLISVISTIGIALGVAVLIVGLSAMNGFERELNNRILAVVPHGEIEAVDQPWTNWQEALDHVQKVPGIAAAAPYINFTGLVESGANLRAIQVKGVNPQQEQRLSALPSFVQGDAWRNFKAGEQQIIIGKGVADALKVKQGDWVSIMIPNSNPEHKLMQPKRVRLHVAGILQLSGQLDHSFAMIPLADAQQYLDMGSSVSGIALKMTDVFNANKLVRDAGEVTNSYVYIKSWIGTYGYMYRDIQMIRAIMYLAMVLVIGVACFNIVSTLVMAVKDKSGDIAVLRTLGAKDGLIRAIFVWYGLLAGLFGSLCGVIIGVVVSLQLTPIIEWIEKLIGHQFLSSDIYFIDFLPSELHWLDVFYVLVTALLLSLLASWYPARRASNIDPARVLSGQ

The chains behind the UniProt entries cited, without tags or fusion partners. Residues count along the entry.
UniProt P0A937, residues 20-113: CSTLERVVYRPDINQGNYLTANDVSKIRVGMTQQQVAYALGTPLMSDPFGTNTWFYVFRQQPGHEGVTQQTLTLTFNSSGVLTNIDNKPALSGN

[2] = molecular target: T2, LolCDE complex with H65D in LolE (E. coli K-12) (UniProt P0ADC3+P75957+P75958)
T2 sequence 1: T1 sequence 1
T2 sequence 2: T1 sequence 2
T2 sequence 3: T1 sequence 3 with H65D

[3] = molecular target: T3, LolCDE complex with L60D in LolE (E. coli K-12) (UniProt P0ADC3+P75957+P75958)
T3 sequence 1: T1 sequence 1
T3 sequence 2: T1 sequence 2
T3 sequence 3: T1 sequence 3 with L60D

[4] = molecular target: T4, LolCDE complex with LolE^I251D (E. coli K-12) (UniProt P0ADC3+P75957+P75958)
T4 sequence 1: T1 sequence 1
T4 sequence 2: T1 sequence 2
T4 sequence 3: T1 sequence 3 with I251D

[5] = molecular target: T5, LolCDE complex with LolE^Y258D (E. coli K-12) (UniProt P0ADC3+P75957+P75958)
T5 sequence 1: T1 sequence 1
T5 sequence 2: T1 sequence 2
T5 sequence 3: T1 sequence 3 with Y258D

[6] = molecular target: T6, LolCDE complex with V63D in LolE (E. coli K-12) (UniProt P0ADC3+P75957+P75958)
T6 sequence 1: T1 sequence 1
T6 sequence 2: T1 sequence 2
T6 sequence 3: T1 sequence 3 with V63D

Measured: binding

BamE, outer membrane lipoprotein, with C-terminal Myc tag (from UniProt P0A937 20-113)
binds: all assays above

— paper PMC11671585, “Deciphering the molecular basis of lipoprotein recognition and transport by LolCDE” (Signal Transduction and Targeted Therapy, 2024)
